No constants are given. Whether binding was seen depends on the method and setting. In cells and extracts the contact can be indirect. Some entries that bind do so weakly or less than the wild type.
Columns and labels:
[1] = target: BRG1 (BRM/SWI2-related gene 1), endogenous in 501mel cells (human (endogenous in 501mel)) (UniProt P51532); experiment: co-IP
FLAG-BAHCC1^BAH = FLAG-BAHCC1^BAH (UniProt Q9P281); experiment: co-IP

Chains of the proteins cited; added tags and fusions are not shown. Lines headed by an entry give the natural chain unless they say otherwise; changes in a name come on top. Residues count along the entry.
UniProt P51532: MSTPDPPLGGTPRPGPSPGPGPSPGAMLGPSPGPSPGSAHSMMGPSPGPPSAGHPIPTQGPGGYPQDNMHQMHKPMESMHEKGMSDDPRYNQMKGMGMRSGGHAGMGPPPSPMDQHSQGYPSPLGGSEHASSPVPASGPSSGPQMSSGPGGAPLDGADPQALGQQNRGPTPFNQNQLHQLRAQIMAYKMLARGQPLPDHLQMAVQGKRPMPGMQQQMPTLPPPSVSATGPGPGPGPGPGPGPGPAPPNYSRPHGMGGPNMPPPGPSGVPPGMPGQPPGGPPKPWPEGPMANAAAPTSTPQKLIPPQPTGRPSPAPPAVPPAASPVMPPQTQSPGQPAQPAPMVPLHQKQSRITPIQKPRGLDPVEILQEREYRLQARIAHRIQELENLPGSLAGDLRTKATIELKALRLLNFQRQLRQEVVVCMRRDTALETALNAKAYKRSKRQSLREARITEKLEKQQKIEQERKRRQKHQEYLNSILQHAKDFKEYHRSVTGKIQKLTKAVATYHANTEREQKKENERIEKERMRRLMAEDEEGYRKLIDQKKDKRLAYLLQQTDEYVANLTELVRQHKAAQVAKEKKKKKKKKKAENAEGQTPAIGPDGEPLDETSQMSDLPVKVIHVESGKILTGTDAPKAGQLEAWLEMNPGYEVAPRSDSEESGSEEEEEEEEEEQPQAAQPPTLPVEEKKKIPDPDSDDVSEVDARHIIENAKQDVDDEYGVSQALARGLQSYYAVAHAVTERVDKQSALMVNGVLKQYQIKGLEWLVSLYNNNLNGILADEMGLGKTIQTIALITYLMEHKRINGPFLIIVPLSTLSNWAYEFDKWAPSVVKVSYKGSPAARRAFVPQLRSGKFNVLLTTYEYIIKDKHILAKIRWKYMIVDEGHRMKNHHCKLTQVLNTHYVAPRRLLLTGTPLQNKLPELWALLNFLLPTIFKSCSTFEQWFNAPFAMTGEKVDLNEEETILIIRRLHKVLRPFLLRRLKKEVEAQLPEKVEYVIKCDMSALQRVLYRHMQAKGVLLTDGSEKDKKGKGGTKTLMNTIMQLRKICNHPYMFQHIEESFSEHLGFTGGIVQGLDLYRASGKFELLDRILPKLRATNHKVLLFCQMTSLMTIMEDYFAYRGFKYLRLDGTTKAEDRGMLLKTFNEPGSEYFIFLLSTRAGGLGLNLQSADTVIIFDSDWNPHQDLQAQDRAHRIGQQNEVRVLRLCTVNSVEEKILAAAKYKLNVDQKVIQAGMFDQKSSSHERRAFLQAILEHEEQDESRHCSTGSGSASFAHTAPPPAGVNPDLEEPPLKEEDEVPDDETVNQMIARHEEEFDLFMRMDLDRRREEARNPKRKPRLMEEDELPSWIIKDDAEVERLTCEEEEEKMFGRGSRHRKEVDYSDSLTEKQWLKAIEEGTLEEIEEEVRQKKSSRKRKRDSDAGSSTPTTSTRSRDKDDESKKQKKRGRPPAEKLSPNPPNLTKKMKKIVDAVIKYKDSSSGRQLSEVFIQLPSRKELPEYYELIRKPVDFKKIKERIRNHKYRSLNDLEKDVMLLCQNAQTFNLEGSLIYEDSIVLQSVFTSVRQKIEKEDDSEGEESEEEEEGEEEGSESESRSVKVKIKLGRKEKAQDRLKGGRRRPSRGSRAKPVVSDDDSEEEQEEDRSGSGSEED
UniProt Q9P281: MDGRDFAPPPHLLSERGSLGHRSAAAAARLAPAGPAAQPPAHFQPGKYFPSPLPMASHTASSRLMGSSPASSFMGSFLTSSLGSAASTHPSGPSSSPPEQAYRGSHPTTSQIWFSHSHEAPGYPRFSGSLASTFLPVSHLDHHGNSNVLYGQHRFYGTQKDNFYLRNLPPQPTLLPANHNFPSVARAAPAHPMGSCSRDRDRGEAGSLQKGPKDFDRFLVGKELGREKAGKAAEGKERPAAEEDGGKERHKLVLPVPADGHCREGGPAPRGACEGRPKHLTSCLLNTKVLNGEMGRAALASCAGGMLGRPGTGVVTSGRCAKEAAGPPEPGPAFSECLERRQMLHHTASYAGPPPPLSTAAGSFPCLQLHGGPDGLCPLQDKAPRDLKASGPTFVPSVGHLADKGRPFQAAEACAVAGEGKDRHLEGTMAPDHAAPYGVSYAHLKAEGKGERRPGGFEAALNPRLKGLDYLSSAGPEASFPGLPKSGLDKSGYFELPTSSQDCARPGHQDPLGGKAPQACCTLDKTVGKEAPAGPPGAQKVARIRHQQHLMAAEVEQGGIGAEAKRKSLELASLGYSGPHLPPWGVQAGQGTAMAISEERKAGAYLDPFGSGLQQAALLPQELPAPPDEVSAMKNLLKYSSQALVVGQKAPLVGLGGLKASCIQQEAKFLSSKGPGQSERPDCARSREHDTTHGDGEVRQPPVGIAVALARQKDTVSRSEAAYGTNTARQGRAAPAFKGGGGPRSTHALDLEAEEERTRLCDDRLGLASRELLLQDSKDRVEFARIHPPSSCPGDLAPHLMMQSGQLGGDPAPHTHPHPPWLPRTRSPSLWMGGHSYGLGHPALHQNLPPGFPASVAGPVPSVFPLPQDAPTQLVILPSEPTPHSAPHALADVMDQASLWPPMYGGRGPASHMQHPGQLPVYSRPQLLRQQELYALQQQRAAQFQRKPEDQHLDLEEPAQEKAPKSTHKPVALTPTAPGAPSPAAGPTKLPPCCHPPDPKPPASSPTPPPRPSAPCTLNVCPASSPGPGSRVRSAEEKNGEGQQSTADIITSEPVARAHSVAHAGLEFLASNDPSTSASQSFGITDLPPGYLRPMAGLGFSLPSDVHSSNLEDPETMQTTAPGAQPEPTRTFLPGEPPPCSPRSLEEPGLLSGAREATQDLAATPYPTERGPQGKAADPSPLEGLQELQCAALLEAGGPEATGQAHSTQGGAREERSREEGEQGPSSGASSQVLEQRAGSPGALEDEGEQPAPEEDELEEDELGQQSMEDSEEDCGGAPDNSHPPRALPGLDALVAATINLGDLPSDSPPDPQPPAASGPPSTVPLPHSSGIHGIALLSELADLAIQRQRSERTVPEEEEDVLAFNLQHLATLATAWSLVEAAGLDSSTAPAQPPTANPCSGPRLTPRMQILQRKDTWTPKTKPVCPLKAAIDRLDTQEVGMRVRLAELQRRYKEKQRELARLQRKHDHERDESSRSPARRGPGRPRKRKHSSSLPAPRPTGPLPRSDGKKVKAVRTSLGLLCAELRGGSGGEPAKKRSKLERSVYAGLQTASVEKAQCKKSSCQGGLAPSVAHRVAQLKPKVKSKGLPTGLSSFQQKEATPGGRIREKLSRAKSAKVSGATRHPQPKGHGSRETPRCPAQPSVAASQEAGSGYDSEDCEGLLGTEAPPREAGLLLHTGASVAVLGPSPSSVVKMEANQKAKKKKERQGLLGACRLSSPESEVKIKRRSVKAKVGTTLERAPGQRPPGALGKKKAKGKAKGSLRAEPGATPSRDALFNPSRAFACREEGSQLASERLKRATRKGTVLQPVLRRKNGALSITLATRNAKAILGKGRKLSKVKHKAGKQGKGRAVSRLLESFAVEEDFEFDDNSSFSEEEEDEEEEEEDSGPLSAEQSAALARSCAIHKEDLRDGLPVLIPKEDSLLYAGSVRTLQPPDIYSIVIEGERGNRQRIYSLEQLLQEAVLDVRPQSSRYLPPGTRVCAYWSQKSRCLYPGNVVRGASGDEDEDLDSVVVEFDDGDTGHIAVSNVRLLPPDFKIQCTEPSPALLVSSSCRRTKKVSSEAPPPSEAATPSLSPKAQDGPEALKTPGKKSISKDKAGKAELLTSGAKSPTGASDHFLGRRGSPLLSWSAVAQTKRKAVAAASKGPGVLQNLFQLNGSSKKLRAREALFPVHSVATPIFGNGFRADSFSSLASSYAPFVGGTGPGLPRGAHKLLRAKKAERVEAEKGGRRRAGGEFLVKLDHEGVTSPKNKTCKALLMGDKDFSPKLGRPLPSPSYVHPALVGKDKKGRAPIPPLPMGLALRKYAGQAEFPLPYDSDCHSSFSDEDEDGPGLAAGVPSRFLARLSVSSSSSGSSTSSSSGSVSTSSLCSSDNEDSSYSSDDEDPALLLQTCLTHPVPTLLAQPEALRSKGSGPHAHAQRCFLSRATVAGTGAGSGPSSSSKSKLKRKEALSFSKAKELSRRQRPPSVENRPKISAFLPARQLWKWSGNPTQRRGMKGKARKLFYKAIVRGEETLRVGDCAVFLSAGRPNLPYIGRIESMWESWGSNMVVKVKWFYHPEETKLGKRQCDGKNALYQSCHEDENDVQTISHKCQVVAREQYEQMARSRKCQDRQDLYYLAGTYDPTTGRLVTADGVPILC
FLAG-BAHCC1^BAH: residues 2513-2633 of Q9P281
UniProt Q8TAQ2: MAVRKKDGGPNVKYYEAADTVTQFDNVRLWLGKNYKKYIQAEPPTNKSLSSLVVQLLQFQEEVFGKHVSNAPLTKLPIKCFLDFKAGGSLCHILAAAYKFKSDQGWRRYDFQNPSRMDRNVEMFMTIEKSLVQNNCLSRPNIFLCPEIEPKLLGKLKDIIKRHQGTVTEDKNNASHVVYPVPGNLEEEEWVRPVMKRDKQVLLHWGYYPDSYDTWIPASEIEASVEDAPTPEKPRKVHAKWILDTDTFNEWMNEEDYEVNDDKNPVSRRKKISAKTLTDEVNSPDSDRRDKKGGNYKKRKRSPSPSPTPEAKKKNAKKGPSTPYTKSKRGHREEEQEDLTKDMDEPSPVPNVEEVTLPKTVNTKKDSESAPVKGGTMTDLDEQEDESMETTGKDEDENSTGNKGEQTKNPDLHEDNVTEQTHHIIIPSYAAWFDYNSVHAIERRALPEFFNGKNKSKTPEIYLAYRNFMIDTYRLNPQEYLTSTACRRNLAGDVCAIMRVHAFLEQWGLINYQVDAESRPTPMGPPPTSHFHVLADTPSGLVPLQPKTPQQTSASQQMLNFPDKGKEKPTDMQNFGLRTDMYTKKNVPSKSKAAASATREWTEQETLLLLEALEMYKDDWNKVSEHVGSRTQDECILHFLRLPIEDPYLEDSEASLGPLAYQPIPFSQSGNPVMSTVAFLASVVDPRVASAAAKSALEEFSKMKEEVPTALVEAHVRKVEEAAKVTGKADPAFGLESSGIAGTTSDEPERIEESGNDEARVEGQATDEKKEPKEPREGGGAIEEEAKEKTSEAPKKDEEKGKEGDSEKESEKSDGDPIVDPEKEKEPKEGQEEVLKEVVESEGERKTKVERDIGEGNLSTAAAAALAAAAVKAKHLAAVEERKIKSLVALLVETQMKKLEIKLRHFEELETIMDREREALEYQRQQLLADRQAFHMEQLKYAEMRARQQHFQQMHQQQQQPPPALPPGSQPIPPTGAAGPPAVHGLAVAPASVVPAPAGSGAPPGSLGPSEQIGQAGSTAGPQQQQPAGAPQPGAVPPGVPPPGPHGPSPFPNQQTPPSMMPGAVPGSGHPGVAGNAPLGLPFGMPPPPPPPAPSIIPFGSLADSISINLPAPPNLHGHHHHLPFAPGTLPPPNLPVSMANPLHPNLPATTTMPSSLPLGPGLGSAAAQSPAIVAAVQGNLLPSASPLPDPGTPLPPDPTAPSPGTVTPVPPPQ

| Substance | binding [1] | binding (FLAG-BAHCC1^BAH) |
| --- | --- | --- |
| Bromo Adjacent Homology and Coiled Coil Domain-Containing 1 (BAHCC1), endogenous (from UniProt Q9P281 1-2639) | binds | – |
| HA-BAHCC1^BAH (stably expressed in 501mel) (from UniProt Q9P281 2513-2633) (domain or fragment) | binds | – |
| SMARCC2 (from UniProt Q8TAQ2 1-1214) | binds | – |
| BRG1 (BRM/SWI2-related gene 1), endogenous in HEK293T cells (from UniProt P51532 1-1647) | – | binds |
